Data as given in PubChem BioAssay AID1259254 (NCATS, 2017).
This is one part, drawn at random, of about 59,000 deposited reagents. About 1,550 of them (2.6%) count as active. 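G2 share is only a proxy for re-replication; each gene was hit by three separate siRNAs, and active genes were retested.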 A number with no mark means an inactive call. Reagents against one gene are numbered here. Not all columns of the deposit are shown. Not stated in the record: the amount of reagent.

- Purpose: 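Finding genes that stop cells copying their DNA twice in one cycle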 (primary screen)
- System: human HCT116 colorectal cancer cells
- Knock-down reagent: single siRNA against human genes
- Timing: 3 days
- Measured: 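Nuclei stained with Hoechst and imaged; cell-cycle phase assigned by DNA content; G2 share scaled per plate, non-targeting siRNA 0%, GMNN siRNA 100%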
- Reading the numbers: G2 robust z-score: higher = more G2 cells, more excess DNA replication
- Rule for the call: 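An siRNA counts as active if its G2 robust z-score lies at least 5 MADs above the screen median; here such calls match roughly 38% of GMNN control or more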

G2 robust z-score, by target gene and reagent
GAS6: #1 -0.996; #2 -0.0957; #3 0.432
ZNF454: #1 2.82; #2 0.326; #3 -0.872
CAPN1: #1 -0.478; #2 0.594; #3 -0.168
SRD5A2: #1 -0.362; #2 0.0327; #3 0.138
LRRC17: #1 2.36; #2 0.202; #3 -0.148
VPS37B: #1 0.577; #2 -0.211; #3 0.731
PTCHD3: #1 -0.112; #2 -0.362; #3 -0.463
RSBN1L: #1 -0.45; #2 0.402; #3 -0.111

3 entries already listed, ordered by “G2 robust z-score”, lowest first:
target gene	siRNA no.	G2 robust z-score
PTCHD3	3	-0.463
PTCHD3	2	-0.362
PTCHD3	1	-0.112

Further entries:
G2 robust z-score, by target gene and reagent
MAEL: #1 -0.0847; #2 0.237; #3 -0.126
HLA-C: #1 -0.0211; #2 0.799; #3 -0.777
BBS1: #1 0.015; #2 4.34; #3 -1.11
MAST3: #1 -1.71; #2 -1.21; #3 -0.0551
ADAM15: #1 -0.751; #2 0.672; #3 0.711
TPP2: #1 1.13; #2 -0.529; #3 0.302
PPP1CA: #1 1.22; #2 1.04; #3 1.65
SSU72L6: #1 -0.729; #2 -0.869; #3 -0.16
ENAM: #1 1.18; #2 0.0521; #3 -0.101
SLC9A8: #1 -0.98; #2 0.424; #3 2.09
ADAMTS20: #1 0.646; #2 1.17; #3 -0.381
KRTAP2-2: #1 1.4; #2 -0.0355; #3 0.648
RNF152: #1 -0.91; #2 0.647; #3 4.33
ISG20: #1 0.156; #2 -0.927; #3 4.06
INTS9: #1 -0.738; #2 -0.804; #3 3.37
